No constants are given. Whether binding was seen depends on the method and setting. Binding can be weak; no strength is given.
Biological target: kappa-sCD40(1-94)-Flag mutant fragment B (multiple mutations of residues 13-15)
Assay: ELISA, mutated kappa-sCD40(1-94)-Flag captured on anti-Flag

binding: binds
B1: anti-CD40 human monoclonal antibody 3C3 (antibody, human IgG2, kappa, V domains shown)
VH: QVQLVESGGGVVQPGRSLRLSCAGSGFIFSRYGMYWVRQAPGKGLEWVAVIWYDGSYKYYADSVKGRFTISRDNSKNTLYLQMNSLRAEDTAVYYCARESPWYYFDYWGQGTLVTVSS
VL: DIQMTQSPSSLSASVGDRVTITCRASQGISNYLAWYQQKPGKVPKLLIYAASTLQSGVPSRFSGSGSGTDFTLTISSLQPEDVATYYCQKYKSAPFTFGPGTKVDIKR

Reference: patent publication US20250115663A1
